Assay results reported in US20120329679A1.
Results are given in words; binding and its absence hold for the method and conditions named. Some binding calls cover weakened binding; strength is not graded here. Sequences can lack the tags named with a protein.

Tests used:
[1] = target: myc tagged GR2-EGFR-TM (adapter GR2 fused with the transmembrane domain of human epidermal growth factor receptor), expressed on COS 6 cells from helper vector pMAG2 (human) (UniProt P00533); test: two-colour immunofluorescence on COS 6 cells co-transfected with pMAG10 and pMAG2 (FIG. 9)
[2] = target: myc tagged GR2-EGFR-TM (adapter GR2 fused with the transmembrane domain of human epidermal growth factor receptor), expressed on COS 6 cells from helper vector pMAG2 (human) (UniProt P00533); test: two-colour immunofluorescence (anti-HA, anti-myc) on COS 6 cells co-transfected with pMAG10 and pMAG2

binding [1]: binds | binding [2]: binds
B1: HA tagged anti-VEGF scFv-GR1 fusion protein expressed in COS 6 cells from mammalian expression vector pMAG10 (scFv)
scFv: SSEVQLVQSGGGVVQPGGSLRLSCAASGYTFTNYGMNWIRQAPGKGLEWVGWINTYTGEPTYAADFKRRVTFSLDTSKSTAYLQLNSLRAEDTAVYYCAKYPYYYGRSHWYFDVWGQGTLVTVSSGGGGSGGGGSGGGGSDIVMTQSPSTLSASPGERATITCSASQSISTYLAWYQQKPGQAPQVLIYAASNLASGVPNRFSGSRSGTDFTLTISSLQPEDFAVYYCQQYYSTPWTFGGGTKVEIKAAAYPYDVPDYAGGHHHHHHVDGSGGGEEKSRLLEKENRELEKIIAEKEERVSELRHQLQSVGGC
